Source: PMC10244698, “Polypyrimidine tract binding protein 1 (PTBP1) contains a novel regulatory sequence, the rBH3, that binds the prosurvival protein MCL1” (The Journal of Biological Chemistry, 2023)

Target: T1, PTBP1 RRM1 (human) (UniProt P26599)
T1 sequence (looked up): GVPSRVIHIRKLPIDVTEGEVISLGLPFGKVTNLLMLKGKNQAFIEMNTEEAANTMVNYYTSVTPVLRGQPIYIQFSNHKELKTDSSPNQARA
Test: EMSA
Conditions: EMSA: 10 mM Hepes pH 7.3, 20 mM KCl, 1 mM MgCl2, 1 mM DTT, tRNA (10 ug/ml in Methods, 10 ug/uL in Fig S2 legend), room temperature, 1% TBE agarose, recombinant protein, residues 55-147, protein details: N-terminal His6 (pET28a), label: 3' FTSC (fluorescein-5-thiosemicarbazide)

Sequence: ACGCUUCUCUCAGGGAAAAACAUGC [MCL1 3'UTR 25-mer RNA]
- binding result (30 uM RRM1, 50 nM RNA, no MCL1, tRNA): binds
- binding result (plus MCL1 50-140 uM, MCL1 displaces RNA): binds more weakly

For at least one entry, the source does not settle the construct or the ends of the probe. Weaker means in comparison with the reference protein, sequence or condition of that experiment. Protein sequences can lack the tags named with them. At least one verdict rests on a figure or table, not on a statement of the authors.
